Measurements from the supplement of paper PMC6411743.
± gives the standard deviation of the averaged measurements. The list shows a part of the results.

Amino acid sequences for entries named in this document (tags omitted). A change or cut given only in a name is not applied to a line headed by its entry.
UniProt Q69YI7: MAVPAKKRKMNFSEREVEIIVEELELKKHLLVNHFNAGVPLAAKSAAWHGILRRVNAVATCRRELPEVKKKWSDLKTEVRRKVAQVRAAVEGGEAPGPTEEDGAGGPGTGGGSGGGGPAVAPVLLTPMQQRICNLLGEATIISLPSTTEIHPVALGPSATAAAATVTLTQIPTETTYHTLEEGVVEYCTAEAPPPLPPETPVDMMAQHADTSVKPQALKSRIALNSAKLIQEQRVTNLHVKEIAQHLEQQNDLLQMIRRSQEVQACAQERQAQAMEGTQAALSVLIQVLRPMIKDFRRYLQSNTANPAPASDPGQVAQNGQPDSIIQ
UniProt Q86SF2: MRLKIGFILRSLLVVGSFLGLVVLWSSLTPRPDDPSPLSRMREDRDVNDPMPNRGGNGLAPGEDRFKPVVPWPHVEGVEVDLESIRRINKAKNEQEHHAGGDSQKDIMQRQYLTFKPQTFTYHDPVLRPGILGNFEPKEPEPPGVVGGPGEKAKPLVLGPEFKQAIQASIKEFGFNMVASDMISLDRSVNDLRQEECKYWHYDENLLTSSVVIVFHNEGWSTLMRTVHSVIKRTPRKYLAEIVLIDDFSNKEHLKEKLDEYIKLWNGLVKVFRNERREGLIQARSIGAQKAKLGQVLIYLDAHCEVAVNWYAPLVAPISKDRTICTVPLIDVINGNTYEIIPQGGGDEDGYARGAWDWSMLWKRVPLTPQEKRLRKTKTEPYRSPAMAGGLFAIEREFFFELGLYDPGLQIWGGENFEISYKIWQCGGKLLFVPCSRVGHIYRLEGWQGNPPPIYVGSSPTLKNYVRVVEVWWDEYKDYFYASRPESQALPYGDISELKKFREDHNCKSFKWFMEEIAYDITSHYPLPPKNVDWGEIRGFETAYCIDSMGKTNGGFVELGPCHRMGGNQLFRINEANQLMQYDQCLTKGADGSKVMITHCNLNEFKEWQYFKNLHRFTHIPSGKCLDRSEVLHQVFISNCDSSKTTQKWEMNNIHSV
UniProt Q71SY5: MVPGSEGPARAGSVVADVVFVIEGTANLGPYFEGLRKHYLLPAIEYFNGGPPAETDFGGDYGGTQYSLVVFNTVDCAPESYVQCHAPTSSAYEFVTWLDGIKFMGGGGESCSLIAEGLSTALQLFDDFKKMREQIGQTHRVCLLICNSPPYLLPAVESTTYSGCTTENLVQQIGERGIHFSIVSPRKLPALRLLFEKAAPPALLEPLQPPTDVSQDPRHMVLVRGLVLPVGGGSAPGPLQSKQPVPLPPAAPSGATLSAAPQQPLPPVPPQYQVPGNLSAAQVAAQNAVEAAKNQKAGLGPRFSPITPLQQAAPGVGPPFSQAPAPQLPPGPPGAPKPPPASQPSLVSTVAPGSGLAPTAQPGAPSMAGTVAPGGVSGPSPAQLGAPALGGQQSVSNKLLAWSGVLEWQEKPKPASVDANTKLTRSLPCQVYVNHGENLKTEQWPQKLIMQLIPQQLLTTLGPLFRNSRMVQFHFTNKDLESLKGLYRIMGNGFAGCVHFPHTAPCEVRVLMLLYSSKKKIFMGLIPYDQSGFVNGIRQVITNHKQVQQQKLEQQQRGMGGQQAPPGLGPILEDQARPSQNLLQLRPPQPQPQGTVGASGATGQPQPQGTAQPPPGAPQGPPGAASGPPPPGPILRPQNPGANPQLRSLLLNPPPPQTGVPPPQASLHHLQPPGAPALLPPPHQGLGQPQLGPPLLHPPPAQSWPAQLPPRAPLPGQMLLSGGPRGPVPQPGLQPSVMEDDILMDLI
UniProt Q6P4I2: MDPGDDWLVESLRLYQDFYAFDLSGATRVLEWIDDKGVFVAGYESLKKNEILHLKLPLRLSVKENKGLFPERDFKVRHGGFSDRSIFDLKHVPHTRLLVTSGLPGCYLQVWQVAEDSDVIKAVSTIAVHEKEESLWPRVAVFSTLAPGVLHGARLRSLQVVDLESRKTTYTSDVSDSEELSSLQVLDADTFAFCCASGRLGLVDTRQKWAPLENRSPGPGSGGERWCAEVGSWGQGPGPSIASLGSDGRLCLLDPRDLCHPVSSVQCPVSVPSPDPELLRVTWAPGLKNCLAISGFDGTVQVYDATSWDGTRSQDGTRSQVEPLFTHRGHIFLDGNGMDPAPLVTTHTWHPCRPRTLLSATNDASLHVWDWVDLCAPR
UniProt Q7Z422: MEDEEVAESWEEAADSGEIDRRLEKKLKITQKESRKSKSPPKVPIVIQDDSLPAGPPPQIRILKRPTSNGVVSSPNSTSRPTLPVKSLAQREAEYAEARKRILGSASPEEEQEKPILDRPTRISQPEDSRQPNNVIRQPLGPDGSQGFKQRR

Compound: Nc1nc2c(ncn2[C@@H]2O[C@H](COP(=O)(O)OP(=O)(O)OP(=O)(O)O)[C@@H](O)[C@H]2O)c(=O)[nH]1 [guanosine triphosphate]
Test: NP40-soluble protein abundance relative to vehicle (solubility fold change) (ratio); higher = more soluble protein in presence of GTP
Experimental: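 Solubility proteome profiling in Jurkat crude lysate. Lysate was treated with Mg-GTP (0.1-10 mM) for 10 min at room temperature and 3 min at 37 °C, then solubilised with 0.8% NP40 and benzonase, followed by ultracentrifugation. Proteins were quantified by TMT10 LC-MS/MS; the value is the NP40-soluble abundance relative to the NP40-processed vehicle, from 3 independent experiments.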

| Target | NP40-soluble protein abundance (concentration: 0.1mM) | NP40-soluble protein abundance (concentration: 0.5mM) | NP40-soluble protein abundance (concentration: 1mM) | NP40-soluble protein abundance (concentration: 2mM) | NP40-soluble protein abundance (concentration: 4mM) | NP40-soluble protein abundance (concentration: 6mM) | NP40-soluble protein abundance (concentration: 8mM) | NP40-soluble protein abundance (concentration: 10mM) |
| --- | --- | --- | --- | --- | --- | --- | --- | --- |
| NAIF1 (UniProt Q69YI7) | 0.942 ± 0.03 | 0.913 ± 0.089 | 0.958 ± 0.082 | 0.914 ± 0.054 | 1 ± 0.02 | 0.947 ± 0.11 | 0.885 ± 0.018 | 1.03 ± 0.035 |
| GALNT7 (UniProt Q86SF2) | 1.05 ± 0.083 | 1.05 ± 0.059 | 0.97 ± 0.041 | 0.975 ± 0.059 | 0.938 ± 0.051 | 0.926 ± 0.07 | 0.913 ± 0.048 | 0.893 ± 0.07 |
| UniProt Q71SY5 and related entries | 1.07 ± 0.054 | 1.01 ± 0.017 | 1.11 ± 0.053 | 1.12 ± 0.082 | 1.04 ± 0.024 | 1.08 ± 0.038 | 1.19 ± 0.14 | 1.13 ± 0.12 |
| WDR73 (UniProt Q6P4I2) | 1.02 ± 0.094 | 1.02 ± 0.18 | 0.928 ± 0.087 | 0.904 ± 0.13 | 0.893 ± 0.12 | 0.904 ± 0.092 | 0.89 ± 0.1 | 0.851 ± 0.15 |
| UniProt Q7Z422 and related entries | 0.923 ± 0.024 | 0.989 ± 0.087 | 0.984 ± 0.071 | 0.98 ± 0.12 | 0.967 ± 0.12 | 0.993 ± 0.12 | 1.04 ± 0.11 | 1.13 ± 0.14 |
